Amino acid sequences for entries named in this document (tags omitted).
UniProt P17426: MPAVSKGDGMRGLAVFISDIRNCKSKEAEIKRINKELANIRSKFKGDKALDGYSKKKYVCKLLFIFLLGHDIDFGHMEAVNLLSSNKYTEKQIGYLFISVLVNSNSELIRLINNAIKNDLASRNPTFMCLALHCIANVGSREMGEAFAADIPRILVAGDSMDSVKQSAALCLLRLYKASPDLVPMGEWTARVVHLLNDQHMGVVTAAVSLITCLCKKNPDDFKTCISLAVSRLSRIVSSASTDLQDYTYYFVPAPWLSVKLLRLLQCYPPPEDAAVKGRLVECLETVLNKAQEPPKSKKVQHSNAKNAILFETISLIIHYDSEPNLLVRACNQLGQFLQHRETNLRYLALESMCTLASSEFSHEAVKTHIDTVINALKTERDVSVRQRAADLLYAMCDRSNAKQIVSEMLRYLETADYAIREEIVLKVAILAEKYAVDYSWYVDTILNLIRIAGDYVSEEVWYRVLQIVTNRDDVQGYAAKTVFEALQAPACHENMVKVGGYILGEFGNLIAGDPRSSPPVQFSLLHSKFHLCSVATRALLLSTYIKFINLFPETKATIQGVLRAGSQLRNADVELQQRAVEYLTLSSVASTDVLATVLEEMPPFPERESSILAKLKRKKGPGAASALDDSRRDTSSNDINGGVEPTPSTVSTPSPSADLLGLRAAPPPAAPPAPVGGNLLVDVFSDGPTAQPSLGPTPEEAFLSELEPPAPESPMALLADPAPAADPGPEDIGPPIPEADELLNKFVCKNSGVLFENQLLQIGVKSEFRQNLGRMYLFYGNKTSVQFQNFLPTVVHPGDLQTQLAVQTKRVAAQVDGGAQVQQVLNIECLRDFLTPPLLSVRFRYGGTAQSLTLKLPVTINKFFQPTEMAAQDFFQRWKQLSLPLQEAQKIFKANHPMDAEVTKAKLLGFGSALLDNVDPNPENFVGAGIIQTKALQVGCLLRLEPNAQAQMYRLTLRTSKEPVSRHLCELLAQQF
UniProt Q9QWY8: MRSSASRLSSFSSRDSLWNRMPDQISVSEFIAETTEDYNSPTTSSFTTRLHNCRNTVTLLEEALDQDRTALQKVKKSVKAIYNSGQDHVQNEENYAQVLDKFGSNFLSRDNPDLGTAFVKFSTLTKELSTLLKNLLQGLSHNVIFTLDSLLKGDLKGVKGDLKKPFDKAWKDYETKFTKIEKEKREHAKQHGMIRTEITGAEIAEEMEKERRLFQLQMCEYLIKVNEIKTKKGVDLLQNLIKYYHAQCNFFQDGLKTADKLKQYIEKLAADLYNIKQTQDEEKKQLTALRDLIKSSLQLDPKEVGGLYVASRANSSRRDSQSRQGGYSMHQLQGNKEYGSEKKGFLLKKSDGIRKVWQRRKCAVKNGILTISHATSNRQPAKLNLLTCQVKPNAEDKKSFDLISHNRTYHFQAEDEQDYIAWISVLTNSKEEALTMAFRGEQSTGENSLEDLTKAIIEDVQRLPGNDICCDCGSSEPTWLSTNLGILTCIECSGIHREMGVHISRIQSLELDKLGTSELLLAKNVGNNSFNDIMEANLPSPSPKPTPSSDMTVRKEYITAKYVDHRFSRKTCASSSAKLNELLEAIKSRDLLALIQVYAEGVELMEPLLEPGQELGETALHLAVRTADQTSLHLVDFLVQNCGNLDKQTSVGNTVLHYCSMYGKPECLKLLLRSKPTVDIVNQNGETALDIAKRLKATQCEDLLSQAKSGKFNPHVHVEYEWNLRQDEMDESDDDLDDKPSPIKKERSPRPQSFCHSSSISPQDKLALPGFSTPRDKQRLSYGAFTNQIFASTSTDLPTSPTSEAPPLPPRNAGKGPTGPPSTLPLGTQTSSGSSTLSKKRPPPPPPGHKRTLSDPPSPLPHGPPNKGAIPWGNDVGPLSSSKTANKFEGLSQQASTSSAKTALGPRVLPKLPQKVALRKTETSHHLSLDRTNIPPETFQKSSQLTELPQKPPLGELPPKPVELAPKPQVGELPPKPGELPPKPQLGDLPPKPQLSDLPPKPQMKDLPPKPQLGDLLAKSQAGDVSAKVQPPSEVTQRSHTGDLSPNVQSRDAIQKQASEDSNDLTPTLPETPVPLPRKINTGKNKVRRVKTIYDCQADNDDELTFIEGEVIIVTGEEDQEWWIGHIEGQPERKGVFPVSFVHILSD
UniProt Q9Z0R4: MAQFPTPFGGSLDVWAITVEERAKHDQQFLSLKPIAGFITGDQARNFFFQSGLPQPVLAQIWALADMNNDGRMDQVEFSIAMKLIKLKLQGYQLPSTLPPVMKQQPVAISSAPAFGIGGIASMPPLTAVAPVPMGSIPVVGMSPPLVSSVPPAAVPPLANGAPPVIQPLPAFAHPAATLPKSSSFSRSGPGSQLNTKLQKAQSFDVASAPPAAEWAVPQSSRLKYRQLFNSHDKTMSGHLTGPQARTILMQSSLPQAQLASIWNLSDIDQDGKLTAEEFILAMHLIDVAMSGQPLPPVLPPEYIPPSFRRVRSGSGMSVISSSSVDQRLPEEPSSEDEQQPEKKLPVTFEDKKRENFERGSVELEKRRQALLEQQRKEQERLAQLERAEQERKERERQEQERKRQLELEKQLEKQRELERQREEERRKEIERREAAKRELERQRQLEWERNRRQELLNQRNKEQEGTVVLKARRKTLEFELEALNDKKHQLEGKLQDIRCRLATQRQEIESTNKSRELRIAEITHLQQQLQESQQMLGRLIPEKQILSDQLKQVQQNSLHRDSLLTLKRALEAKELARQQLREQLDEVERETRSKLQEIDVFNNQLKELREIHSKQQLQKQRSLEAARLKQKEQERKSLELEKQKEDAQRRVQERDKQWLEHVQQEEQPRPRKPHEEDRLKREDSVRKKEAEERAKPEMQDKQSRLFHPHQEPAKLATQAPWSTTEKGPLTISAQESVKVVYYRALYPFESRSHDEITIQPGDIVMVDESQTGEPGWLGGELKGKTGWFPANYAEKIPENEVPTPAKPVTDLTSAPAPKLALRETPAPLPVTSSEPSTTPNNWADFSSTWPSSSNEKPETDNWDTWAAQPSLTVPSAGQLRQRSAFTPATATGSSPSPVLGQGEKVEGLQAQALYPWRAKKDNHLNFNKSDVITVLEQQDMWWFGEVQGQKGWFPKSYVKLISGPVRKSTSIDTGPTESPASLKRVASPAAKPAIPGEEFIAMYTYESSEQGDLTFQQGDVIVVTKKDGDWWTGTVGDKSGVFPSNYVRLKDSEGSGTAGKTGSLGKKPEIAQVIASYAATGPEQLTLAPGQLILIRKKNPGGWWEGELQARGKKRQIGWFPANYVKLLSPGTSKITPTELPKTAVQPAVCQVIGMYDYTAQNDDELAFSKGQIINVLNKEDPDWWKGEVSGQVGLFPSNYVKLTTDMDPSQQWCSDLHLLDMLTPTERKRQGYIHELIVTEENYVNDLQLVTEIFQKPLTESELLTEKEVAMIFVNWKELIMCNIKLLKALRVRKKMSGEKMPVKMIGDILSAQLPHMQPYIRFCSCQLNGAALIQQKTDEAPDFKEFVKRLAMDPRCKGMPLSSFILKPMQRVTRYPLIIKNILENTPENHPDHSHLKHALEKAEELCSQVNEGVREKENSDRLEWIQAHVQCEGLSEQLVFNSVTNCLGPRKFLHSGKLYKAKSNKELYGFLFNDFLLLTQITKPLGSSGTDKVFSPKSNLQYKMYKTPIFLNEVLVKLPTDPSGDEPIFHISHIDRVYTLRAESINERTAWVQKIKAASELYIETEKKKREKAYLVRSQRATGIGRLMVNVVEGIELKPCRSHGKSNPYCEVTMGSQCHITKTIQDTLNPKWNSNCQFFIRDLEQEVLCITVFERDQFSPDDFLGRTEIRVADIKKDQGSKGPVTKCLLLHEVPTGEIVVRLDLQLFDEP
UniProt P17427: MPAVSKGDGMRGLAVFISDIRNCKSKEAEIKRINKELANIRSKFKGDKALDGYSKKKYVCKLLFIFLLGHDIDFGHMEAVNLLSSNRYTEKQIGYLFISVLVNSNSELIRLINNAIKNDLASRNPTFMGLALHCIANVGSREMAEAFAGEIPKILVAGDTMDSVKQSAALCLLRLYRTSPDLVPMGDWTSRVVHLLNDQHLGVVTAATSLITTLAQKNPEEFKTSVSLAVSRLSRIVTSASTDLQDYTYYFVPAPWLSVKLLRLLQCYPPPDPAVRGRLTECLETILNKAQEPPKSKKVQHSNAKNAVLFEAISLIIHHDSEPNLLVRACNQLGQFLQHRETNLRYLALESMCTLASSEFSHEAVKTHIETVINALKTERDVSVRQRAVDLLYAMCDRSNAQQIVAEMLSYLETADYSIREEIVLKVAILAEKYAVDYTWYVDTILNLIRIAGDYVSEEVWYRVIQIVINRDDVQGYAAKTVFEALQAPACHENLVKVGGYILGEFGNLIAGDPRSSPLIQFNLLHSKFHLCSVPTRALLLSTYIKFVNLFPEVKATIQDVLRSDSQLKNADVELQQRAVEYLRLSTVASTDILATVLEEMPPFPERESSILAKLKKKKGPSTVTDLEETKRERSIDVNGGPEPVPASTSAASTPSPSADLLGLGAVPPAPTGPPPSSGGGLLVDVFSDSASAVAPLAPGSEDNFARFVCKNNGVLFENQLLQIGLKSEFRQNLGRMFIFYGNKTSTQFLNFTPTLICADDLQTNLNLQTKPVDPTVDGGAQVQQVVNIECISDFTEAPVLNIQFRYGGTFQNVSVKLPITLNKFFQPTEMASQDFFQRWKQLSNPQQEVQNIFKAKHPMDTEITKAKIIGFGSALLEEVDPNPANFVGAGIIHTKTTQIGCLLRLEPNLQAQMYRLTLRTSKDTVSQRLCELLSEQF

In article PMC6684583:

T1: AIDA-1 (APP intracellular domain associated 1), encoded by Anks1b (mouse (endogenous in mouse brain)) (UniProt Q8BIZ1)
T1 sequence: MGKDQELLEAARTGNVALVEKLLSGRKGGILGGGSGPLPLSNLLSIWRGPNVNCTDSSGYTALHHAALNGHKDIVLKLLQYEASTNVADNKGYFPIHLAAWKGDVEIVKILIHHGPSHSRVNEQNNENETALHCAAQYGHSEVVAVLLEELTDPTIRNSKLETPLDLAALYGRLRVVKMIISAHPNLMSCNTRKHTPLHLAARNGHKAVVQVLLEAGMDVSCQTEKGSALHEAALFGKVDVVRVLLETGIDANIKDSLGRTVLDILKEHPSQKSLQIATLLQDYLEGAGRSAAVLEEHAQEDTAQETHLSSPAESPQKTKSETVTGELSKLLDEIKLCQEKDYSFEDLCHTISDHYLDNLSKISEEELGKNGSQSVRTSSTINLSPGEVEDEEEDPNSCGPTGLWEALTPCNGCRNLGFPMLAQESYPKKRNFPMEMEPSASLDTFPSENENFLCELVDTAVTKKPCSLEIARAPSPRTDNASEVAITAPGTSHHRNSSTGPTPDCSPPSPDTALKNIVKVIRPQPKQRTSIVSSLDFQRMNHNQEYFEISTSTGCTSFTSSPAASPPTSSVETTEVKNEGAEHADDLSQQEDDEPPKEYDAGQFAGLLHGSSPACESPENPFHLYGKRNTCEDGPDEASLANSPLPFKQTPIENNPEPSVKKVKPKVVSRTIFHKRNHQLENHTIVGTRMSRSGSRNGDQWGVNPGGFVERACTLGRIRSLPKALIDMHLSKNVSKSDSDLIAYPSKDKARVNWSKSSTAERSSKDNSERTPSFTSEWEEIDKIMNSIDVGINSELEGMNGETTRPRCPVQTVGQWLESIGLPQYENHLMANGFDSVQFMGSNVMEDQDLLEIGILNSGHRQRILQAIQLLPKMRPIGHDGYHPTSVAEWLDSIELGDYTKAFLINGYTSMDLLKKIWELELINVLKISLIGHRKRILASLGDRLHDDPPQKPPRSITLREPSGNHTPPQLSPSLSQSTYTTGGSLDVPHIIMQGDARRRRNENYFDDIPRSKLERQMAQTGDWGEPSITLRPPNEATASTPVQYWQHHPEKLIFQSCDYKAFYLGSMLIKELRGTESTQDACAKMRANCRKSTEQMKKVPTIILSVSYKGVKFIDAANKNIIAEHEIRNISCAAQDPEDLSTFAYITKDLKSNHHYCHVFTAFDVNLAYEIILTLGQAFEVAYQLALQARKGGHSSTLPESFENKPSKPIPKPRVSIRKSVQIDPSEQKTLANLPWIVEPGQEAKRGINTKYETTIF

B1: Git1 (protein, UniProt Q68FF6 1-770)
chain: MSRKGPRAEVCADCSAPDPGWASISRGVLVCDECCSVHRSLGRHISIVKHLRHSAWPPTLLQMVHTLASNGANSIWEHSLLDPAQVQSGRRKANPQDKVHPIKSEFIRAKYQMLAFVHKLPCRDDDGVTAKDLSKQLHSSVRTGNLETCLRLLSLGAQANFFHPEKGTTPLHVAAKAGQTLQAELLVVYGADPGSPDVNGRTPIDYARQAGHHELAERLVECQYELTDRLAFYLCGRKPDHKNGHYIIPQMADRSRQKCMSQSLDLSELAKAAKKKLQALSNRLFEELAMDVYDEVDRRENDAVWLATQNHSTLVTERSAVPFLPVNPEYSATRNQGRQKLARFNAREFATLIIDILSEAKRRQQGKSLSSPTDNLELSARSQSELDDQHDYDSVASDEDTDQEPLPSAGATRNNRARSMDSSDLSDGAVTLQEYLELKKALATSEAKVQQLMKVNSSLSDELRRLQREIHKLQAENLQLRQPPGPVPPPSLPSERAEHTLMGPGGSTHRRDRQAFSMYEPGSALKPFGGTPGDELATRLQPFHSTELEDDAIYSVHVPAGLYRIRKGVSASSVPFTPSSPLLSCSQEGSRHASKLSRHGSGADSDYENTQSGDPLLGLEGKRFLELSKEDELHPELESLDGDLDPGLPSTEDVILKTEQVTKNIQELLRAAQEFKHDSFVPCSEKIHLAVTEMASLFPKRPALEPVRSSLRLLNASAYRLQSECRKTVPPEPGAPVDFQLLTQQVIQCAYDIAKAAKQLVTITTREKKQ

biological target: T1, AIDA-1 (APP intracellular domain associated 1), encoded by Anks1b (mouse (endogenous in mouse brain)); test: affinity purification with mass spectrometry; AIDA-1 antibodies (C-10, 2B22 or Mix of C-10 + 1A11 + 2B22) crosslinked to protein G agarose or magnetic beads; 5 mg whole mouse brain lysate in DBM buffer and in RIPA buffer, eluates pooled; 10-plex TMT labelling; enrichment over mouse IgG control (>1.4-fold agarose, >3.0-fold magnetic, at least 3 peptides)

binding, binds:
Srgap2 (from UniProt Q91Z67 1-1071)
Ap2a1 (from UniProt P17426 1-977)
SynGAP1 (from UniProt F6SEU4 1-1340)
Asap1 (from UniProt Q9QWY8 1-1147)
Itsn1 (from UniProt Q9Z0R4 1-1714)
Ap2a2 (from UniProt P17427 1-938)
B1

These are yes or no findings as the source states them, for the method shown. Binding seen in cells or lysates may run through a third protein. These calls come from enrichment with a bait or labelling near it, and not all partners need be listed.
